Test results: patent US20140248291A1, “Modulation of Cellular Migration” (THE UAB RESEARCH FOUNDATION, priority 2011, published 2014)
For at least one compound, name, drawing or mass did not settle the structure.

Tested on: D54-MG-GFP glioma cells
Test: Transwell migration assay
Format: cell-based, human
Conditions: 5 h, neuroligand at bottom of filter
Method: The day before the experiment was performed, ˜70% confluent dishes of cells were prepared. Transwell migration Fluoroblock cell culture inserts (BD Biosciences, San Jose, Calif.) with 8 μm pores were coated overnight with Vitronectin (BD Biosciences, San Jose, Calif.) at a concentration of 5 μg/ml in PBS. The following day, inserts were blocked with 1% fatty acid-free bovine serum albumin for 1 h. Inserts were then washed two times in PBS, and 400 μl of Migration Assay Buffer (MAB, 0.1% fatty acid-free bovine serum albumin in serum-free media) was added to the bottom of each well. Cells were rinsed once in PBS and were lifted off the dish by the addition of 0.5 mm EGTA. Cells were rinsed twice by centrifugation and resuspended in MAB and counted. […] The number of nuclei that migrated through pores was counted. All counts per treatment were averaged and SE values were calculated. […]
To investigate the hypothesis that BK promotes glioma migration in vitro, we used Transwell migration assay which conveniently permit examination of cell migration across a membrane barrier with 8 μm pores towards vitronectin, a chemo-attractant extracellular matrix protein. This frequently used assay allows a quantitative study of drug effects with regards to drugs acting as motogens or as chemo-attractants. […]

**Q.** Which “effect on D54-MG cell migration” value does the source give for CC(=O)OCC[N+](C)(C)C [ACh, acetylcholine] here?
**A.** failed to alter glioma migration
